Structures are written as SMILES.

The subject of assay [1] is LNCaP cells. The experiment in a line: Growth inhibition of LNCaP-GFP cells with primary human T-cells, 4 days, with combination index analysis (Example 6). The class given is cell-based. Here is the method:
FIG. 4A and FIG. 4B are graphs showing the results of assays measuring the effectiveness of enzalutamide and the anti-PSMA bispecific molecule TSC249 at inhibiting the growth of prostate cancer cells sensitive to both agents (the enzalutamide-sensitive cell line LNCaP). LNCaP cells stably expressing GFP were cultured in 96 well plates for 4 days in the presence of primary human T cells and titrations of either enzalutamide (FIG. 4A) or TSC249 (FIG. 4B). Additional procedures are described in Example 6. Percentage of live cells relative to an untreated control is shown on the y-axis. […]
To study the effects of combining enzalutamide and a bispecific binding molecule targeting PSMA and CD3 (TSC249) to inhibit the growth of prostate cancer cells sensitive to both agents, the enzalutamide-sensitive cell line LNCaP was used in growth inhibition assays. […] Overall fluorescent signal from GFP enabled the quantitation of living LNCaP target cells in isolation from T-cells. […]
After 4 days culture at 37° C. in 5% CO2, media was aspirated from wells and […] of 0.4% NP-40 was added to each well. Fluorescent signal from GFP in LNCaP cells adherent in wells was detected by a Spectramax plate reader, reading from the bottom of the wells. […]

Assay [2] relates to LNCaP cells. The experiment in a line: Effect of enzalutamide on redirected T-cell cytotoxicity in LNCaP cells expressing GFP (Example 1). The class given is cell-based. To be noted: Homo sapiens, 96 h, approximate, 4 days, read-out: EC50 for growth inhibition of LNCaP cells. As for the experimental part:
A titration of the anti-PSMA bispecific molecule TSC249 (protein sequence of SEQ ID NO: 78 in Table 3) was added to all sets of LNCaP cells in the amounts shown on the x-axis. T-cells and DMSO were added to the first set of LNCaP cells (leftmost set of bars). […] No T-cells and DMSO were added to the third set of LNCaP cells (set of bars second from the right). […] LNCaP cell growth (number of live cells) was measured by overall fluorescence and expressed as a fraction of live cells relative to the cells untreated with TSC249 on the y-axis.
LNCaP cells expressing GFP were cultured with donor T-cells at a 3:1 ratio of T-cells to LNCaP target cells for 4 days. […] DMSO alone was added to other samples. A titration of the anti-PSMA bispecific molecule TSC249 (protein sequence of SEQ ID NO: 78 in Table 3) was added to the cell cultures. LNCaP cell growth (number of live cells) was monitored by overall fluorescence.

In the case of `CNC(=O)c1ccc(N2C(=S)N(c3ccc(C#N)c(C(F)(F)F)c3)C(=O)C2(C)C)cc1F` [enzalutamide], the “interaction by combination index (Chou and Talalay)” value in assay [1] (1.95-31.25 pM TSC249 at all enzalutamide concentrations used (39, 156, 625 nM)) was “Synergy”. Besides, the EC50 in assay [1] (96 h, LNCaP-GFP with primary human T-cells, 4 day time period, enzalutamide alone, read-out: EC50 (decrease in live cells)) was 100 to 300 nM; in assay [2], roughly 160 nM.

One may read the EC50 as the concentration giving half of the maximal effect.

Source of the values: US20180022819A1, “COMPOSITIONS AND METHODS FOR COMBINATION THERAPY WITH PROSTATE-SPECIFIC MEMBRANE ANTIGEN BINDING PROTEINS” (APTEVO RESEARCH AND DEVELOPMENT LLC, priority 2015, published 2018).
